Counter-ions that a name gives are not always drawn. Some of the results follow. Repeats in this data set agree poorly, so a single value says little.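 Cells: ReNCell VM human fetal ventral-midbrain neural progenitors, differentiated mitogen-free. Blinded raters compared doublecortin-stained (early neurons) or tyrosine hydroxylase-stained (dopaminergic neurons) images with untreated wells, where 0 means no change. After repeats and both raters were averaged, compounds scoring 2 or above became hits for retesting.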
tested on: ReNCell VM; test: neuronal differentiation score (DCX+ cell fraction vs untreated, manual image score) (score (-3 to 3)); higher = more neuronal differentiation; settings: library: LOPAC; 2 uM; 2 weeks

Neuronal differentiation score, inactive:
O=C1NC(=S)S/C1=C\c1cc(Br)ccc1OCc1ccccc1Br [PRL-3 Inhibitor I] 0
CC(C)NCC(O)COc1ccc(COCCOC(C)C)cc1 (centres undefined) [Bisoprolol hemifumarate salt] 0
CN1CCC[C@@H]1c1cccnc1.Cc1ccc(C(=O)O[C@H](C(=O)O)[C@@H](OC(=O)c2ccc(C)cc2)C(=O)O)cc1 [(+)-Nicotine (+)-di-p-toluoyl tartrate] 0
CCCCCC(O)CCCC(=O)O (centres undefined) [5-hydroxydecanoic acid sodium] 0
CC1=C(CC(=O)O)c2cc(F)ccc2/C1=C\c1ccc(S(C)(=O)=O)cc1 [Sulindac sulfone] 0

same assay, conditions: library: Natural; 2 uM; 2 weeks

Neuronal differentiation score, inactive:
COc1ccc([C@H]2O[C@@H](c3ccc(OC)c(OC)c3)[C@H](C)[C@@H]2C)cc1OC [2,5-Bis-(3,4-dimethoxy-phenyl)-3,4-dimethyl-tetrahydro-furan] 0
Oc1cc2c(cc1O)C1c3ccc(O)c(O)c3OCC1(O)C2 (centres undefined) [haematoxylin] 0
O=C1C=CC2=C3c4cc(O)c(O)cc4CC3(O)COC2=C1O (centres undefined) [haematein] -1
COc1ccc2cc([C@H](C)C(=O)O)ccc2c1 [naproxen] 0

same assay, conditions: library: Prestwick; 2 uM; 2 weeks

Neuronal differentiation score, inactive:
O=C(Nc1cccc2c(=O)cc(-c3nnn[nH]3)oc12)c1ccc(OCCCCc2ccccc2)cc1 [Pranlukast] 0
Cc1cc2c(s1)Nc1ccccc1N=C2N1CCN(C)CC1 [Olanzapine] 0
CCCCOc1cc(C(=O)NCCN(CC)CC)c2ccccc2n1 [Dibucaine] 0
C=CC1=C(C(=O)O)N2C(=O)[C@@H](NC(=O)/C(=N\OCC(=O)O)c3csc(N)n3)[C@H]2SC1 [Cefixime] 0
CCCCOC(=O)c1ccc(O)cc1 [Butylparaben] 0
Clc1ccc(Nc2nnc(Cc3ccncc3)c3ccccc23)cc1 [Vatalanib] 0

A draw from above in order of SMILES length, low to high.
Neuronal differentiation score, inactive:
Cc1cc2c(s1)Nc1ccccc1N=C2N1CCN(C)CC1 [Olanzapine] 0
Clc1ccc(Nc2nnc(Cc3ccncc3)c3ccccc23)cc1 [Vatalanib] 0
O=C(Nc1cccc2c(=O)cc(-c3nnn[nH]3)oc12)c1ccc(OCCCCc2ccccc2)cc1 [Pranlukast] 0

same assay, conditions: library: Spectrum; 2 uM; 2 weeks

Neuronal differentiation score, inactive:
N=C(N)NCCN1CCCCCCC1 1
COC(=O)C1=C(C)NC(C)=C(C(=O)OCC(C)C)C1c1ccccc1[N+](=O)[O-] (centres undefined) 0
CCc1nn(CCCN2CCN(c3cccc(Cl)c3)CC2)c(=O)n1CCOc1ccccc1 0
COc1ccc(-c2cc(=O)c3c(O)cc(OC)c(OC)c3o2)c(OC)c1 0
C[C@@H]1O[C@@H](OC[C@H]2O[C@@H](Oc3c(-c4ccc(O)c(O)c4)oc4cc(O)cc(O)c4c3=O)[C@H](O)[C@@H](O)[C@@H]2O)[C@H](O)[C@H](O)[C@H]1O 0
CCOC(=O)N1CCC(=C2c3ccc(Cl)cc3CCc3cccnc32)CC1 0
Oc1ccc(Cl)c2c1CCC2 0
O=C(O)CN1C(=O)c2cccc3cccc(c23)C1=O 0
OC[C@@H](O)[C@@H](O)[C@H](O)[C@@H](O)CO 0
CC(C)(CO)C(O)C(=O)NCCCO (centres undefined) 0
CC1=CCc2c(cc3oc(C)cc(=O)c3c2O)OC1 0
CC(C)COC(=O)c1ccc(N)cc1 1
COC(=O)c1c(OC)cc2c(c1C)Oc1c(Cl)c(O)c(Cl)c(C)c1C(=O)O2 0
CN1C(=O)CC(c2ccccc2)C1=O (centres undefined) 1
CC(=O)/C(=C\c1ccccc1)CC(=O)O 0
O=C(c1ccc(OCCN2CCCCC2)cc1)c1c(-c2ccc(O)cc2)sc2cc(O)ccc12 0
CC(C)(C)NC(=O)[C@H]1CC[C@H]2[C@@H]3CC[C@H]4NC(=O)C=C[C@]4(C)[C@H]3CC[C@]12C 0

same assay, conditions: library: Tocriscreen; 2 uM; 2 weeks

Neuronal differentiation score, inactive:
COc1ccc(CC(=O)NC(/N=C(\NC#N)Nc2cccc3ncccc23)C(C)(C)C)cc1OC (centres undefined) 0
CC1(c2ccccc2)OC(C(=O)O)=CC1=O (centres undefined) [Acifran] 0
COC(=O)/C=C/c1cccc(N(Cc2ccc(-c3ccc(N(C)C)cc3)cc2)C(=O)C2CCCCC2)c1 [Fexaramine] 0
COc1cc(/C=C(\C#N)C(N)=O)cc(CSc2nc3ccccc3s2)c1O 0
CCCCCCCCCCCC1=C(O)C(=O)C=C(O)C1=O [Embelin] 0
CCN(CC)CCCCN1c2ccccc2Oc2ccc(Cl)cc21 [10-DEBC hydrochloride] 0
O=C(c1ccc(Nc2nccc(-c3cc4ccccc4s3)n2)cc1)N1CCC(N2CCCC2)CC1 0

tested on: ReNCell VM; test: dopaminergic neuron differentiation score (TH+ cell fraction vs untreated, manual image score) (score (0 to 3)); higher = more TH+ dopaminergic neuron differentiation; settings: library: LOPAC; 2 uM; 4 weeks; BDNF 10 ng/ml + GDNF 10 ng/ml

Dopaminergic neuron differentiation score, inactive:
O=C1NC(=S)S/C1=C\c1cc(Br)ccc1OCc1ccccc1Br [PRL-3 Inhibitor I] 0
CC(C)NCC(O)COc1ccc(COCCOC(C)C)cc1 (centres undefined) [Bisoprolol hemifumarate salt] 0
CN1CCC[C@@H]1c1cccnc1.Cc1ccc(C(=O)O[C@H](C(=O)O)[C@@H](OC(=O)c2ccc(C)cc2)C(=O)O)cc1 [(+)-Nicotine (+)-di-p-toluoyl tartrate] 0
CCCCCC(O)CCCC(=O)O (centres undefined) [5-hydroxydecanoic acid sodium] 0
CC1=C(CC(=O)O)c2cc(F)ccc2/C1=C\c1ccc(S(C)(=O)=O)cc1 [Sulindac sulfone] 0

Reference: the supplement of paper PMC4635364
